This is one part of the list.
The targets below were run with COc1ccc(Cn2ccc3ccc(C(=O)NO)cc32)cc1 (assay: dose-dependent thermal stabilisation call (2D-TPP, DLPTP, 10% FDR) (binary (1 = stabilised)); higher = stabilised by the compound). Details: system: HL-60 intact cells; concentration range 0.04-10 µM.

By UniProt entry, the sequences of proteins in these tests, tags left out. Where a name states a change or a piece, a line headed by the entry shows the natural chain unless it says otherwise.
UniProt Q7KZI7: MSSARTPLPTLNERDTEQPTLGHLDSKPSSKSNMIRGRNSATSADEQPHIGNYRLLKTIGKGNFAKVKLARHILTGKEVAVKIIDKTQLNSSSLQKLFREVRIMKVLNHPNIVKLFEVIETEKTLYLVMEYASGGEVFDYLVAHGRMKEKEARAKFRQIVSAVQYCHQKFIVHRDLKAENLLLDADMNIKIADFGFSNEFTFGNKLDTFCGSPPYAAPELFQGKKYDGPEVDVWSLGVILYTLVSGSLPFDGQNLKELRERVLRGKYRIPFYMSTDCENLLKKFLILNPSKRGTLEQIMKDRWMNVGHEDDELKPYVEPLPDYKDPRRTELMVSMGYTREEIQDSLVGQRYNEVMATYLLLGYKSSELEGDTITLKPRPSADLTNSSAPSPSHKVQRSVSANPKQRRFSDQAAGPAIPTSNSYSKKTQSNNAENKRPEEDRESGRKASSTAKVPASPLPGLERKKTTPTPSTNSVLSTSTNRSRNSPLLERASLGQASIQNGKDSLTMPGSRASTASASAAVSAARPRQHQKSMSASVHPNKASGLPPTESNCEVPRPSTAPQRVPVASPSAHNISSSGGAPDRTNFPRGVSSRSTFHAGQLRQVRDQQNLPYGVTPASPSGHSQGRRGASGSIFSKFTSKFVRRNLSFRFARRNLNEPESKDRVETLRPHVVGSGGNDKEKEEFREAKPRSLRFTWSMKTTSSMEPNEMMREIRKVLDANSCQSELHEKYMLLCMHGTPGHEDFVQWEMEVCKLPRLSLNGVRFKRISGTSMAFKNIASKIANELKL
UniProt Q14676: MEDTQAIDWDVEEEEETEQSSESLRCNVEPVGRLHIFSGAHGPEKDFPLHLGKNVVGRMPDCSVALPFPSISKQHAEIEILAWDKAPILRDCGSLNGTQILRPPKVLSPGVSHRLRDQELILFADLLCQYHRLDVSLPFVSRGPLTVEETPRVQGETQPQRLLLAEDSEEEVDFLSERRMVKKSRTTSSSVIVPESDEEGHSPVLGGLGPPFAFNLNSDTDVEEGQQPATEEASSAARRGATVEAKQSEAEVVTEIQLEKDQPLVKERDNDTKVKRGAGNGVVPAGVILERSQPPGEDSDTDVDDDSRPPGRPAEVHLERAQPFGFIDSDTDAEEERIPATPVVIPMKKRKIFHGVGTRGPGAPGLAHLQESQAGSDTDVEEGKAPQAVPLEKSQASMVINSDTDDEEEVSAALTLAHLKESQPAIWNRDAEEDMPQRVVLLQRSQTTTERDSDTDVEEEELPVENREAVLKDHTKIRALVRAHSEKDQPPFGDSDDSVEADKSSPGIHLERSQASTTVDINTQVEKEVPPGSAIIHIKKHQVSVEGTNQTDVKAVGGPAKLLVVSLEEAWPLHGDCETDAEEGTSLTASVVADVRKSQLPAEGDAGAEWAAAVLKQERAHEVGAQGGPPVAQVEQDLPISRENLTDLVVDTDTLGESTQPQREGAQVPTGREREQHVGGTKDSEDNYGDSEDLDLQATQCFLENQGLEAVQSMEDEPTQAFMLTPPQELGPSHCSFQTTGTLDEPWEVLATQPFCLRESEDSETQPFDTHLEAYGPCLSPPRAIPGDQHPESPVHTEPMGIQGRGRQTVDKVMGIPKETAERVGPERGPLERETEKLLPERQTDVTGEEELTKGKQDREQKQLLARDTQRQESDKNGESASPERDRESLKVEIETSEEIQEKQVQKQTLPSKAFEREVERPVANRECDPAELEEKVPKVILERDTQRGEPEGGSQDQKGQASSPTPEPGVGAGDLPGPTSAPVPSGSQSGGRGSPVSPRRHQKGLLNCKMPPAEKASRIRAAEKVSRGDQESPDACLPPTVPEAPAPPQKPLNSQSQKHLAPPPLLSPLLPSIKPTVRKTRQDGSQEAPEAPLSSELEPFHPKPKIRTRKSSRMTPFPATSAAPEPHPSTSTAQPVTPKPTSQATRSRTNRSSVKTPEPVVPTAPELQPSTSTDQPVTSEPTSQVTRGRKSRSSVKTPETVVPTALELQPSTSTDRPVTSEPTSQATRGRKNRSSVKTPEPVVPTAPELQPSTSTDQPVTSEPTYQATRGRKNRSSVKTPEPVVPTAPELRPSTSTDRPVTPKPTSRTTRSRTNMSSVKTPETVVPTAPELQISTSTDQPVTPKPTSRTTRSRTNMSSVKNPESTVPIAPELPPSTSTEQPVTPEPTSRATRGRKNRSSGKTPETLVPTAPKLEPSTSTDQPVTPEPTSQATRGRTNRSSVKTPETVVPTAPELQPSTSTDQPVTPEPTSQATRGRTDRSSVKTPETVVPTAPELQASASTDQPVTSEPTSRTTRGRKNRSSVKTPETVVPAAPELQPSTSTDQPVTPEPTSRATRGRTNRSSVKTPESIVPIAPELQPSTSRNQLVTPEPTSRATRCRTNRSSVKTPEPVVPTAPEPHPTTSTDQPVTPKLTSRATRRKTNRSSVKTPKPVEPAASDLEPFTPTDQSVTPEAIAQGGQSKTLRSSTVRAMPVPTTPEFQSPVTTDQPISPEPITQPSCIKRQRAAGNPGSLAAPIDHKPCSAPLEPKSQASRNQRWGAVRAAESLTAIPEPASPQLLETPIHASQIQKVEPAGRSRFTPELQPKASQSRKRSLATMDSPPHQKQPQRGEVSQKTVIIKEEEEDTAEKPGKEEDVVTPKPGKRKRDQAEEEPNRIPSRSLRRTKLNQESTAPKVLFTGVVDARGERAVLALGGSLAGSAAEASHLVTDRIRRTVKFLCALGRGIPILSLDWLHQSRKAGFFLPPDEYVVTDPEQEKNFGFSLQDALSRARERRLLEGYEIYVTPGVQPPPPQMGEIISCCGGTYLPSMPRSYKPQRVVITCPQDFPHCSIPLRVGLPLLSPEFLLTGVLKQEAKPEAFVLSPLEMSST
UniProt O95983: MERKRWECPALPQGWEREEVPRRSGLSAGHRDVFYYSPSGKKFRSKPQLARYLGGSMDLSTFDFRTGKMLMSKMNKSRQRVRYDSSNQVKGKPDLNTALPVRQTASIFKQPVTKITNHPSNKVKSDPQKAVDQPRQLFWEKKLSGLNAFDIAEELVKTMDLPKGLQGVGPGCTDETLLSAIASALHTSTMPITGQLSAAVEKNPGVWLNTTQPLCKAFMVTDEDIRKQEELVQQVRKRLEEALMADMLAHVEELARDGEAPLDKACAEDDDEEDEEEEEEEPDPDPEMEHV
UniProt Q969Z3: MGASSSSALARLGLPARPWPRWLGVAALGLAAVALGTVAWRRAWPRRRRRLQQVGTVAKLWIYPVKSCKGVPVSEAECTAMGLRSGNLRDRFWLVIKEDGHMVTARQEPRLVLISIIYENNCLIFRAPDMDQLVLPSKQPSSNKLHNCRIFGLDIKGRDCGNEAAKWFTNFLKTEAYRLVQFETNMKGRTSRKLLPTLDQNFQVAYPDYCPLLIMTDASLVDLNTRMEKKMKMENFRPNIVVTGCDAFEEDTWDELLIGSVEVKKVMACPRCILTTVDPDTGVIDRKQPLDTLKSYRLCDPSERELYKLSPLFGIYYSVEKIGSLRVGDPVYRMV
UniProt Q7Z3U7: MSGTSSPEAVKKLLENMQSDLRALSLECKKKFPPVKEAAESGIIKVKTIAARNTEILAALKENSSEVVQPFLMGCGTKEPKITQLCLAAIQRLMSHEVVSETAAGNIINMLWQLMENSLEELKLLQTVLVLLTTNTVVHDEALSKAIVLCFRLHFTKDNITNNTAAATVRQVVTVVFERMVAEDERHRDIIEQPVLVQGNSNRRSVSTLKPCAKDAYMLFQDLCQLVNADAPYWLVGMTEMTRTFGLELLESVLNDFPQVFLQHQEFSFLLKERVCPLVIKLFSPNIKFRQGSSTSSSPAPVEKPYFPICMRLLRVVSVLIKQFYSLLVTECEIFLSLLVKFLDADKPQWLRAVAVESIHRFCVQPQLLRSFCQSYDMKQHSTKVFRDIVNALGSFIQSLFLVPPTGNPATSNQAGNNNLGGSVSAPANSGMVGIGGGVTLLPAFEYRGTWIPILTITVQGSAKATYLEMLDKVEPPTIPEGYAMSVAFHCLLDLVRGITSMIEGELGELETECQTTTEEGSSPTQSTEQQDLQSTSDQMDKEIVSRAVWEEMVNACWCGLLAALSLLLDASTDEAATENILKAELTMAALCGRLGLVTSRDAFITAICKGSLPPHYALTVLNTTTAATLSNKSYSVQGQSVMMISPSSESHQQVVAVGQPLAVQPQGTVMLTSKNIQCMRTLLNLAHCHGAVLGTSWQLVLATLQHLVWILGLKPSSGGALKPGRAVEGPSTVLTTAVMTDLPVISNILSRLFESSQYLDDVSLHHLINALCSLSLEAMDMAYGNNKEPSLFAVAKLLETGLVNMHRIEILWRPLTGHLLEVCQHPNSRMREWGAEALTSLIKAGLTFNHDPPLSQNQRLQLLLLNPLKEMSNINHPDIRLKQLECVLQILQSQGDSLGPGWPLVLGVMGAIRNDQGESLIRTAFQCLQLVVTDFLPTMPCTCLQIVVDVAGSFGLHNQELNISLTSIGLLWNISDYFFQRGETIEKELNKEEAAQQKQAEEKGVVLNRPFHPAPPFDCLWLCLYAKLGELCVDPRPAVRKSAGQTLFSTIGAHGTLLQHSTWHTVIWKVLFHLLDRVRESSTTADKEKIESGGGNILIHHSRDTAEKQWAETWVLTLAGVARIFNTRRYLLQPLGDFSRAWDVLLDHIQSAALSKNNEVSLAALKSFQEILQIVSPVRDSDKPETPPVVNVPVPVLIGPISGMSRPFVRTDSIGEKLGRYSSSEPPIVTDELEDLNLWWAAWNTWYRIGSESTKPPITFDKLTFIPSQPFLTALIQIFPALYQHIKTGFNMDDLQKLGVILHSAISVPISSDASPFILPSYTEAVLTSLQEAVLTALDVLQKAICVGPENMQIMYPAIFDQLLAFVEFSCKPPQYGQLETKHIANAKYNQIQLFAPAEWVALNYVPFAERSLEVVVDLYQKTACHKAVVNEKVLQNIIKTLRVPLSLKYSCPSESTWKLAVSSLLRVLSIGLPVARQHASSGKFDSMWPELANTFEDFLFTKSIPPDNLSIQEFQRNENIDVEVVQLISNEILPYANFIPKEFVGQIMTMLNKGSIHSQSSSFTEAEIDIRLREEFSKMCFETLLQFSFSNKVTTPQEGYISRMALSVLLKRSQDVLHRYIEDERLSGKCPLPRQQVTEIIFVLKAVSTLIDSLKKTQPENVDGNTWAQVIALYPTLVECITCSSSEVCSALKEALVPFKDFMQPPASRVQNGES
UniProt Q9H204: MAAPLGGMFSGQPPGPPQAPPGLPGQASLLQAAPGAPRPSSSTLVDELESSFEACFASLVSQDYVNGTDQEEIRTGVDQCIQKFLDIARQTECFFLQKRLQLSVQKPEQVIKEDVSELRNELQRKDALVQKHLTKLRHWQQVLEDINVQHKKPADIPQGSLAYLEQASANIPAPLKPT
UniProt Q96HR3: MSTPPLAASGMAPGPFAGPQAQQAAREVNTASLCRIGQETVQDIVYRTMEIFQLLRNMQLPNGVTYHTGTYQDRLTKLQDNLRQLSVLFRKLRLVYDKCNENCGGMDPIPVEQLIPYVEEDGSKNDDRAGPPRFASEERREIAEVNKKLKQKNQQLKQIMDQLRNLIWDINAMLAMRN
UniProt Q9NRN9: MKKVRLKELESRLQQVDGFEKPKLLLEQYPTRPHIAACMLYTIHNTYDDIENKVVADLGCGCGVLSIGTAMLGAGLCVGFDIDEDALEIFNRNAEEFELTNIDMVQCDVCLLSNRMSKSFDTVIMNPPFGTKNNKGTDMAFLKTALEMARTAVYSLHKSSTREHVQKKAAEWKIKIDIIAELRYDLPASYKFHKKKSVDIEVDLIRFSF
UniProt Q14728: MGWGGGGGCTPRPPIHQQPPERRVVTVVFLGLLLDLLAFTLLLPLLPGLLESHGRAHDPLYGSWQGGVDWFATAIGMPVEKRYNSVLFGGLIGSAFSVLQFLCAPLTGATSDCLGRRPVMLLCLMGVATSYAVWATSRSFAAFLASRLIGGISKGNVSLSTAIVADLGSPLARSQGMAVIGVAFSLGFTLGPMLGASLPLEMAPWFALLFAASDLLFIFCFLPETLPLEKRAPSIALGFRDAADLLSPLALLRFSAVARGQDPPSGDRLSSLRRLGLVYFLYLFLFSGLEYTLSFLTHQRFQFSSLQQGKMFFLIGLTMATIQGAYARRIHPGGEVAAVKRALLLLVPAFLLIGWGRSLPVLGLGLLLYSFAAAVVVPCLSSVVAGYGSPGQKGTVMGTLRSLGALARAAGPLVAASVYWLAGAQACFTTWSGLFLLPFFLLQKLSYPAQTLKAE
UniProt Q9H944: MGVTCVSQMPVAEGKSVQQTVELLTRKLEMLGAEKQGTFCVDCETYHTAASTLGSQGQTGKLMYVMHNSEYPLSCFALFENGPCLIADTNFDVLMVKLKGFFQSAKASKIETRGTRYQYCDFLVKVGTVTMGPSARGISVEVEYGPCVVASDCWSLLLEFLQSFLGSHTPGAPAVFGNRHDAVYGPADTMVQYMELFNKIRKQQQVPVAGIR

| Target | dose-dependent thermal stabilisation call |
| --- | --- |
| MANEAL (UniProt Q5VSG8) | inactive: 0 |
| MRPL2 (UniProt Q5T653) | inactive: 0 |
| MRPL40 (UniProt Q9NQ50) | inactive: 0 |
| MMAA (UniProt Q8IVH4) | inactive: 0 |
| MKL1 (UniProt Q969V6) | inactive: 0 |
| MDN1 (UniProt Q9NU22) | inactive: 0 |
| MICALL1 (UniProt Q8N3F8) | inactive: 0 |
| MFSD9 (UniProt Q8NBP5) | inactive: 0 |
| MARK2 (UniProt Q7KZI7) | inactive: 0 |
| MCM2 (UniProt P49736) | inactive: 0 |
| MEPCE (UniProt Q7L2J0) | inactive: 0 |
| MDC1 (UniProt Q14676) | inactive: 0 |
| MBD3 (UniProt O95983) | inactive: 0 |
| MRPS14 (UniProt O60783) | inactive: 0 |
| MOSC2 (UniProt Q969Z3) | inactive: 0 |
| MGAT5 (UniProt Q09328) | inactive: 0 |
| MRPL32 (UniProt Q9BYC8) | inactive: 0 |
| MON2 (UniProt Q7Z3U7) | inactive: 0 |
| MRPL3 (UniProt P09001) | inactive: 0 |

| Target | dose-dependent thermal stabilisation call |
| --- | --- |
| MRPL18 (UniProt Q9H0U6) | inactive: 0 |
| MED28 (UniProt Q9H204) | inactive: 0 |
| MRPL43 (UniProt Q8N983) | inactive: 0 |
| MED30 (UniProt Q96HR3) | inactive: 0 |
| MPDU1 (UniProt O75352) | inactive: 0 |
| METTL5 (UniProt Q9NRN9) | inactive: 0 |
| MAP3K1 (UniProt Q13233) | inactive: 0 |
| MAT2A (UniProt P31153) | inactive: 0 |
| MRPL47 (UniProt Q9HD33) | inactive: 0 |
| MNDA (UniProt P41218) | inactive: 0 |
| MRPS18A (UniProt Q9NVS2) | inactive: 0 |
| MORF4L2 (UniProt Q15014) | inactive: 0 |
| MFSD10 (UniProt Q14728) | inactive: 0 |
| MRPS28 (UniProt Q9Y2Q9) | inactive: 0 |
| MAP3K4 (UniProt Q9Y6R4) | inactive: 0 |
| MFN1 (UniProt Q8IWA4) | inactive: 0 |
| MRPS11 (UniProt P82912) | inactive: 0 |
| MED20 (UniProt Q9H944) | inactive: 0 |

Laid out differently: entries from further up.
Target	dose-dependent thermal stabilisation call
MAP3K1 (UniProt Q13233)	inactive: 0
MRPS18A (UniProt Q9NVS2)	inactive: 0

Source: the supplement of paper PMC7666118
